These are yes or no findings as the source states them, for the method shown. Binding seen in cells or lysates may run through a third protein. Some entries that bind do so weakly or less than the wild type. Where a sequence is shown, tags or fusion partners need not be part of it.
Molecular target: T1, Drosophila melanogaster TBP (dmTBP), BiFC fusion (Drosophila melanogaster) (UniProt P20227)
T1 sequence: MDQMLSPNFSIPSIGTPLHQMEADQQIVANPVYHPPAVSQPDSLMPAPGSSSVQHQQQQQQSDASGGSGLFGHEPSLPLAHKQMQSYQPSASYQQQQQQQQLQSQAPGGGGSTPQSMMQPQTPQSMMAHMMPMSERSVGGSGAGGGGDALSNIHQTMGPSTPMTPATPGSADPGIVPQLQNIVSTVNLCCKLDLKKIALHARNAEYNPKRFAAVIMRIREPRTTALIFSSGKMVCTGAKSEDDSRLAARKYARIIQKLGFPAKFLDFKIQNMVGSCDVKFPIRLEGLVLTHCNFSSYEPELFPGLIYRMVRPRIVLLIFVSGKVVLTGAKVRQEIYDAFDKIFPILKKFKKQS
Assay: split reporter; preliminary results of BiFC assays with Drosophila melanogaster TBP (data not shown)

The chains behind the UniProt entries cited, without tags or fusion partners.
UniProt P02833: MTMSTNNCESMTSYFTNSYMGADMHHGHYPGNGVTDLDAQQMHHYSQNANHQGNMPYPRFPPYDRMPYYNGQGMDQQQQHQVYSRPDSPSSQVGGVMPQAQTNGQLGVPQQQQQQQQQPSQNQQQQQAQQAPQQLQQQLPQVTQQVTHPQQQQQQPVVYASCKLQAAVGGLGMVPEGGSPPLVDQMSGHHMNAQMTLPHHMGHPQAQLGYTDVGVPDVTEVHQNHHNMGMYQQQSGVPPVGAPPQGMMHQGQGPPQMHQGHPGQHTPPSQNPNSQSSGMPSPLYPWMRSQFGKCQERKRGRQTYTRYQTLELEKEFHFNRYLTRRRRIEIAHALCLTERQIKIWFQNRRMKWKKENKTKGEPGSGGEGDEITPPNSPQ

binding: binds
Substance: Antennapedia (Antp), fused to the C-terminal fragment of Venus (from UniProt P02833 1-378)
